Reference: PMC7819943, “Rice protein-binding microarrays: a tool to detect cis-acting elements near promoter regions in rice”
The list shows a part of the results.

Each sequence was assayed against T1, OsSMF1 (Oryza sativa, UniProt Q6ZLB0 1-436) (assay: protein-binding microarray (RPBM); PBS, 2% BSA, 51.3 ng/ul salmon testes DNA, 50 uM zinc acetate, 200 nM TF, 25 C, 1 h; high values mean tight binding). Conditions: protein: recombinant; tags: N-terminal polyhistidine and DsRed monomer fusion (pET32a); chain copies: 2; label: CyDye5-dUTP incorporated in the synthesized complementary strand; 3' TTTTT single-stranded linker to array surface; dsDNA, one strand shown.
T1 sequence: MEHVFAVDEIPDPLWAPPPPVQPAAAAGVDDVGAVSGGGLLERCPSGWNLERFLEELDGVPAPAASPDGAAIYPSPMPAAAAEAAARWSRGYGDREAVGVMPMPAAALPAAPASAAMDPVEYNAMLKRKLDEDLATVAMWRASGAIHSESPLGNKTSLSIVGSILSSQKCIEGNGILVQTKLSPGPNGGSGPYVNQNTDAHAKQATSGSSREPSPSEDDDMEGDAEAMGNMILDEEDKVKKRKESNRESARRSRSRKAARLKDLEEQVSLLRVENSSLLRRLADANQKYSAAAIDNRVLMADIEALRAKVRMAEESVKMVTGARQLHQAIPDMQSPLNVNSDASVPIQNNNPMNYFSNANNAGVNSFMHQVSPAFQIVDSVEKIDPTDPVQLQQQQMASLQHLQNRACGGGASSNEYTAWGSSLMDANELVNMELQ
Method in brief: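 For the binding signal, per-feature fluorescence intensity was read in arbitrary units on an Axon 4000B scanner. Before scanning, a 2% BSA-blocked custom Agilent array made double-stranded with Cy5-dUTP was washed after 1 h at 25 °C with 200 nM protein and 50 µM zinc acetate. The proteins were Ni–NTA-purified transcription factors with N-terminal polyhistidine and DsRed fusions, expressed in E. coli BL21-CodonPlus.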

Sequence | binding signal
ACAAACCGAGGAGGAGGAGGAGGGCCCACCAGCCACCACGCGGAGTCACCTAGTGCAG | 3310 fluorescence intensity (a.u.)
CAAAATATCTCAGCACGTGGCGATGGCTGGAGGGGAGGCGCGGAGTCACCTAGTGCAG | 3870 fluorescence intensity (a.u.)
GAATCTAGATGCTGTTCCATCTCCAAATGTTCAAACCCTCCGGAGTCACCTAGTGCAG | 4870 fluorescence intensity (a.u.)
ACAATACTACTATTGCCTGTTACGTAATTATGCATCTCTACGGAGTCACCTAGTGCAG | 4040 fluorescence intensity (a.u.)
GTATCCATATATCCGATATGACACGCCAAAACTTTACACCCGGAGTCACCTAGTGCAG | 4870 fluorescence intensity (a.u.)
AACCTGCTGTCCACTACAACGTCACATTTCAACAAATCCACGGAGTCACCTAGTGCAG | 34200 fluorescence intensity (a.u.)
TGTTGCTCAGCCATAGCTCCCAGCCTCCCACGTCCGCACGCGGAGTCACCTAGTGCAG | 7210 fluorescence intensity (a.u.)
AGAGTTCGTGACGGCCCACGTGCCTTCATGTATGGGCTTTCGGAGTCACCTAGTGCAG | 4440 fluorescence intensity (a.u.)
GCGCTCACTTTTCAGCTCATCACTCCGTCACCTCGTGCTCCGGAGTCACCTAGTGCAG | 3850 fluorescence intensity (a.u.)
GGCTCTTTCTATTACGTACGTATGCACTATCTGTATATAGCGGAGTCACCTAGTGCAG | 5100 fluorescence intensity (a.u.)
GATCAAGGAGGCCGTGGCGGACAGGGAGTGCGGGGTGGATCGGAGTCACCTAGTGCAG | 3360 fluorescence intensity (a.u.)
AGTGAGCACGCCTACGTGGCAGTTTGGCCGCATTGGCGATCGGAGTCACCTAGTGCAG | 16900 fluorescence intensity (a.u.)
TTTGCTGACTAGGATGCCATGTCAGCAAAGCCAGACAAAACGGAGTCACCTAGTGCAG | 7290 fluorescence intensity (a.u.)
TGGACAACATGTCGGCCACTCATCTAGTCATCTTAGAGTTCGGAGTCACCTAGTGCAG | 4090 fluorescence intensity (a.u.)
ACACAGCAGCCGCACATCACCCTGACATCTCTCAATCGGACGGAGTCACCTAGTGCAG | 3930 fluorescence intensity (a.u.)
TCAGATGAACTTATTCCCCACAAATATGGTCCTTACGTAGCGGAGTCACCTAGTGCAG | 3530 fluorescence intensity (a.u.)
TTAAGTTCCGAGAAATGACGTGTTTGGCTACAATGCTAGCCGGAGTCACCTAGTGCAG | 7650 fluorescence intensity (a.u.)
TCCTTTTCCGAACCAAGTCCGCACCGCTCCGCACCCATTTCGGAGTCACCTAGTGCAG | 3840 fluorescence intensity (a.u.)
TCGATTGGGGATTGGGGATTGGGGATCAGGAGGGATGGGGCGGAGTCACCTAGTGCAG | 4350 fluorescence intensity (a.u.)
TTGGTAGGTTCGACCTACTAGATTGTTGTTGATAATATAACGGAGTCACCTAGTGCAG | 51700 fluorescence intensity (a.u.)
CTCGCCGCCGCCGCCGCGGGGCGTCATTCTCTCCGGTGCGCGGAGTCACCTAGTGCAG | 3850 fluorescence intensity (a.u.)
TTCAACCCTGCGATTCAAAGGGGCCCTTAGCATTGCAAAACGGAGTCACCTAGTGCAG | 4630 fluorescence intensity (a.u.)
TCGATTACTTCGCTCGTATGGTTCTCTGACGGATAGCCGACGGAGTCACCTAGTGCAG | 19700 fluorescence intensity (a.u.)
AAGTCATTGGGGAAGCTTGTTTCACTACGTGGACTTAACCCGGAGTCACCTAGTGCAG | 5250 fluorescence intensity (a.u.)
CGGCCGCCGCTGGTGCCATGACGACATCCTCTCTGACCGCCGGAGTCACCTAGTGCAG | 3360 fluorescence intensity (a.u.)
ACGGATTGTGATCCTTTAACTTAAATCACATGACTTTCAGCGGAGTCACCTAGTGCAG | 21900 fluorescence intensity (a.u.)
CTCTCTCAGATCCTACGTCCCAAATCGCTCCCACCTCACCCGGAGTCACCTAGTGCAG | 3820 fluorescence intensity (a.u.)

Sequence | binding signal
CCTGTGTGCCACCTGGGAATAAATTTGTACTCGTGCCATTCGGAGTCACCTAGTGCAG | 3900 fluorescence intensity (a.u.)
CCTTCCCCGCCCTCCACCGCTGTGACCGCGCGCTGTCTGTCGGAGTCACCTAGTGCAG | 3310 fluorescence intensity (a.u.)
CCTCGTTTCCACCTCTGTTGCCACCTCTAGTAGGACGCACCGGAGTCACCTAGTGCAG | 3990 fluorescence intensity (a.u.)
TTTTATCAAATTACTTATATGGTTCTCACAATTCAAAGCCCGGAGTCACCTAGTGCAG | 13900 fluorescence intensity (a.u.)
GGCTGGCTGGGCTGGTGGGTACTGGGTTTCACTGATGAAACGGAGTCACCTAGTGCAG | 3810 fluorescence intensity (a.u.)
TTAAAGCTTATCTTAATGCAATTTACGTCATCATTTCGTGCGGAGTCACCTAGTGCAG | 11300 fluorescence intensity (a.u.)
GTTGTACACTAGTAGTACCACGTATCAATGCTCTCTCGATCGGAGTCACCTAGTGCAG | 4720 fluorescence intensity (a.u.)
GCCATGTCAAATAAATACAAAGTCAACGTGTCACATTAGCCGGAGTCACCTAGTGCAG | 8310 fluorescence intensity (a.u.)
TTCCTCCCGCTCATCAGCCACATCGACATCATCCACTGCCCGGAGTCACCTAGTGCAG | 7100 fluorescence intensity (a.u.)
CTTTCCTTGTGTCCAGATCTGAGTTGGTGCATCACTAAGACGGAGTCACCTAGTGCAG | 3880 fluorescence intensity (a.u.)
ACCTTGGTGAAACACAAATTAATTACTCGCCCACGTAGATCGGAGTCACCTAGTGCAG | 4100 fluorescence intensity (a.u.)
CGACTACGAGACGCGAGGTTGAAGACAAGTAAGTACTCCTCGGAGTCACCTAGTGCAG | 65500 fluorescence intensity (a.u.)
AGGTTTAGGGTTTAGGGATGAATCTGGACAAATGATTGTTCGGAGTCACCTAGTGCAG | 3560 fluorescence intensity (a.u.)
TAATATCTTCTATGTAGGAAAATATGCTGACATGGATCTCCGGAGTCACCTAGTGCAG | 4640 fluorescence intensity (a.u.)
TAGATTTACTCACAGCTTGCCACATCAGAGTTTGTAAACACGGAGTCACCTAGTGCAG | 7600 fluorescence intensity (a.u.)
TTGCAGTAGAGTTCCGATGAGATGACGCCGCTAGATCCCCCGGAGTCACCTAGTGCAG | 4600 fluorescence intensity (a.u.)
GAAAGTGCGTCACGAAATCTATTAGAATATGATTAATTAACGGAGTCACCTAGTGCAG | 3140 fluorescence intensity (a.u.)
TCCCGGCCGCCGCAGCCTGCGTGCGTGCGTGTGCGTGCGACGGAGTCACCTAGTGCAG | 9470 fluorescence intensity (a.u.)
TCATTCAAATCTCCCATCTGCCGCTGACGCATGGGGCCATCGGAGTCACCTAGTGCAG | 3690 fluorescence intensity (a.u.)
ATAAAGTCCTTATCGGACACTAAACGCACTTTCCTAAAGACGGAGTCACCTAGTGCAG | 39200 fluorescence intensity (a.u.)
CCTCGAACGTGATGTCACTGCTACTGGGCCCTACATCCTCCGGAGTCACCTAGTGCAG | 13200 fluorescence intensity (a.u.)
CCCTTCGCCTCCGTGGCGCCTCCTCCCTTCTCTCTCCTTCCGGAGTCACCTAGTGCAG | 3460 fluorescence intensity (a.u.)
CTGCTGCCTTCAGTGATTCAGCAGCATGATTTTGACAGTGCGGAGTCACCTAGTGCAG | 3390 fluorescence intensity (a.u.)
AGAGTGAACTTATTCCAATTTAACACGTGTCTCCTTAGTACGGAGTCACCTAGTGCAG | 7780 fluorescence intensity (a.u.)
GAGAGGTGTAACTAGTTAGATAGACCCCGTCACGCGCGCGCGGAGTCACCTAGTGCAG | 5400 fluorescence intensity (a.u.)
CTGTTCCTCCGTACTCGTCGCCCGCCACCTCATCCCGCGGCGGAGTCACCTAGTGCAG | 8610 fluorescence intensity (a.u.)
AAACGGAGTTGCTAGAAATATGGCGCCATATGCTACAGTCCGGAGTCACCTAGTGCAG | 4920 fluorescence intensity (a.u.)

Some values from the results shown.
Value for GTTGTACACTAGTAGTACCACGTATCAATGCTCTCTCGATCGGAGTCACCTAGTGCAG under binding signal: 4720 fluorescence intensity (a.u.)
Value for TCATTCAAATCTCCCATCTGCCGCTGACGCATGGGGCCATCGGAGTCACCTAGTGCAG under binding signal: 3690 fluorescence intensity (a.u.)
